Data on 13 molecules can be found in PubChem BioAssay AID248 (DTP/NCI, 2004).

The list shows only some results of the screen, not a fair sample: it is rich in T/C values a quarter to a half above the control, in often repeated tests (any T/C) and in doses without a T/C. Further doses and runs are listed elsewhere. T/C: endpoint of the treated group in % of that of the vehicle group. Some entries give survivors of the animals treated and no T/C: the source holds a T/C of zero for them, seemingly a mark for toxic or unscored doses. Some survivor counts are full or nearly so, which does not show that the dose was tolerated: the source hardly ever lists a survival T/C far under the control, and the zero likely stands for such cases as well. Counts of survivors are from the toxicity check (mostly the fifth day) where no day follows; animals may have died later. Schedule codes are those of the source, taken here to give the interval after Q, in days (D) or hours (H), and the number of doses after X. Some doses were run more than once; their values stand side by side, smallest first. Some schedules carry Z or #; the key to these is not given. For survival time, this PubChem deposit counts one and a half times the control or more as active, and values a quarter to a half above the control carry no call in these data; other NCI protocols may use other cut-offs. Some T/C values are followed by the survivors on the day toxicity was checked, most often the fifth; without a count, all were alive then.

The assay concerns L1210 leukemia ip in BDF1 mice, survival T/C. The assay is described as follows: NCI In Vivo Anticancer Drug Screen. Data for tumor model L1210 Leukemia (intraperitoneal) in B6D2F1 (BDF1) mice. As to conditions: T/C endpoint: mean survival time, higher T/C = longer survival.
Setting [1] is: dose: 400.0 mg/kg/injection, schedule: Q01DX001 (ip), vehicle: saline.
Where [2] appears, read: dose: 100.0 mg/kg/injection, schedule: Q01DX009 (ip), vehicle: saline.
[3] abbreviates: dose: 400.0 mg/kg/injection, schedule: Q04DX003 (ip), vehicle: saline.
[4] abbreviates: dose: 200.0 mg/kg/injection, schedule: Q01DX009 (ip), vehicle: saline with Tween-80.

Regarding `COC(=O)c1[nH]cnc1/N=N/N(C)C`, the T/C (dose: 13.0 mg/kg/injection, schedule: Q01DX Z (ip), vehicle: saline) is 125 % of control; the T/C (dose: 13.3 mg/kg/injection, schedule: Q01DX009 (ip), vehicle: saline) was 125 % of control; the T/C (dose: 13.5 mg/kg/injection, schedule: Q01DX009 (ip), vehicle: saline) was 131 % of control; the T/C (dose: 14.0 mg/kg/injection, schedule: Q01DX015 (ip), vehicle: saline) is 127 % of control; the T/C (dose: 20.0 mg/kg/injection, schedule: Q01DX009 (ip), vehicle: saline) is 132 % of control; the T/C (dose: 20.0 mg/kg/injection, schedule: Q01DX Z (ip), vehicle: saline) was 138 % of control. Moreover, the T/C was 128 % of control (dose: 21.0 mg/kg/injection, schedule: Q01DX015 (ip), vehicle: saline); 147 % of control (dose: 22.5 mg/kg/injection, schedule: Q01DX Z (ip), vehicle: saline); 138 % of control (dose: 30.0 mg/kg/injection, schedule: Q01DX009 (ip), vehicle: saline); 144 % of control (dose: 31.0 mg/kg/injection, schedule: Q01DX Z (ip), vehicle: saline); 134 and 139 % of control (dose: 31.5 mg/kg/injection, schedule: Q01DX015 (ip), vehicle: saline); 127 % of control (dose: 45.0 mg/kg/injection, schedule: Q01DX009 (ip), vehicle: saline). The T/C is 148 % of control (dose: 45.0 mg/kg/injection, schedule: Q01DX Z (ip), vehicle: saline); 126 % of control (dose: 89.0 mg/kg/injection, schedule: Q04DX003 (ip), vehicle: saline); 132 % of control (dose: 133.4 mg/kg/injection, schedule: Q01DX001 (ip), vehicle: saline); 132 and 144 % of control (dose: 200.0 mg/kg/injection, schedule: Q01DX001 (ip), vehicle: saline); 132 and 134 % of control (dose: 300.0 mg/kg/injection, schedule: Q01DX001 (ip), vehicle: saline, evaluated on day 30); 141 % of control (dose: 300.0 mg/kg/injection, schedule: Q01DX001 (ip), vehicle: saline, run until all animals had died). In addition, the survivor count is reported as 6 of 6 (dose: 125.0 mg/kg/injection, schedule: Q01DX Z (ip), vehicle: saline); 6 of 6 (dose: 150.0 mg/kg/injection, schedule: Q01DX015 (ip), vehicle: saline); 5 of 6 (dose: 250.0 mg/kg/injection, schedule: Q01DX Z (ip), vehicle: saline); 2 of 4 under setting [1]; 1 of 6 (dose: 600.0 mg/kg/injection, schedule: Q01DX001 (ip), vehicle: saline).

In the case of `Cc1cncn1CC(=O)c1ccccc1`, the survivor count reads like this: under setting [2], 0 of 3 and 1 of 6; (dose: 100.0 mg/kg/injection, schedule: Q04DX002 (ip), vehicle: saline) 3 of 6 and 2 of 3; (dose: 200.0 mg/kg/injection, schedule: Q04DX002 (ip), vehicle: Klucel (hydroxypropylcellulose) (HPC)) 0 of 6; (dose: 200.0 mg/kg/injection, schedule: Q04DX002 (ip), vehicle: saline) 0 of 3; (dose: 400.0 mg/kg/injection, schedule: Q04DX002 (ip), vehicle: Klucel (hydroxypropylcellulose) (HPC)) 0 of 6; (dose: 400.0 mg/kg/injection, schedule: Q04DX002 (ip), vehicle: saline) 0 of 3.

On to `Clc1nc2ccccc2nc1C(Cl)Cl`, for which the survivor count (dose: 400.0 mg/kg/injection, schedule: Q01DX001 (ip), vehicle: Klucel (hydroxypropylcellulose) (HPC)) was 3 of 6.

`CC(CC#N)NCC[P+](c1ccccc1)(c1ccccc1)c1ccccc1` (stereo unspecified): the survivor count under setting [3] is 6 of 6.

For the molecule `C/C=C(\c1ccccc1)[N+](=O)[O-]`, the survivor count is, setting by setting: (dose: 100.0 mg/kg/injection, schedule: Q01DX001 (ip), vehicle: acetone) 5 of 6; (dose: 113.0 mg/kg/injection, schedule: Q04DX003 (ip), vehicle: saline) 6 of 6; (dose: 169.0 mg/kg/injection, schedule: Q04DX003 (ip), vehicle: saline) 4 of 6; (dose: 200.0 mg/kg/injection, schedule: Q01DX001 (ip), vehicle: acetone) 0 of 6; (dose: 400.0 mg/kg/injection, schedule: Q01DX001 (ip), vehicle: acetone) 0 of 6.

In the case of `N#CNN=Nc1cc(Cl)c(Cl)c(Cl)c1`, the survivor count (dose: 25.0 mg/kg/injection, schedule: Q04DX003 (ip), vehicle: saline) is listed as 0 of 6; the survivor count (dose: 50.0 mg/kg/injection, schedule: Q04DX003 (ip), vehicle: saline) is on record as 0 of 6; the survivor count under setting [2] was 0 of 6; the survivor count (dose: 100.0 mg/kg/injection, schedule: Q04DX003 (ip), vehicle: saline) was 0 of 6 and 1 of 6; the survivor count (dose: 200.0 mg/kg/injection, schedule: Q01DX009 (ip), vehicle: saline) is on record as 0 of 6; the survivor count (dose: 200.0 mg/kg/injection, schedule: Q04DX003 (ip), vehicle: saline) is 0 of 6. Further, the survivor count under setting [3] is recorded as 0 of 6.

Turning to `COc1ccc(/C=C/c2nccc3ccccc23)cc1OC`, the survivor count (dose: 100.0 mg/kg/injection, schedule: Q04DX002 (ip), vehicle: Klucel (hydroxypropylcellulose) (HPC)) is recorded as 3 of 3.

For the molecule `NCC(OC1CCCCC1)C(Cl)(Cl)Cl` (stereo unspecified), under setting [4], the survivor count is 2 of 6.

Turning to `Clc1nnc2c3ccccc3ccn12`, the survivor count under setting [1] is recorded as 0 of 6.

Turning to `CNc1nc(NC)nc(NC)n1`, for the setting “dose: 400.0 mg/kg/injection, schedule: Q01DX009 (ip), vehicle: Klucel (hydroxypropylcellulose) (HPC)”, the survivor count is 0 of 10.

As to `Clc1c(CI)ccc(CI)c1Cl`, the survivor count is given as 0 of 6 (dose: 100.0 mg/kg/injection, schedule: Q01DX009 (ip), vehicle: Klucel (hydroxypropylcellulose) (HPC)); 4 of 6 (dose: 200.0 mg/kg/injection, schedule: Q04DX003 (ip), vehicle: Klucel (hydroxypropylcellulose) (HPC)); 1 of 6 (dose: 400.0 mg/kg/injection, schedule: Q04DX003 (ip), vehicle: Klucel (hydroxypropylcellulose) (HPC)).

For `CCCCOc1ccc(C(=O)NN)cc1`, the survivor count reads like this: under setting [4], 4 of 6; (dose: 400.0 mg/kg/injection, schedule: Q01DX009 (ip), vehicle: saline with Tween-80) 0 of 6.

As for `ONc1nc(NO)c2[nH]cnc2n1`, the T/C is 131 % of control (dose: 0.5 mg/kg/injection, schedule: Q01DX009 (ip), vehicle: other); 139 % of control (dose: 0.93 mg/kg/injection, schedule: Q01DX009 (ip), vehicle: carboxymethylcellulose (CMC)); 128 % of control (dose: 1.0 mg/kg/injection, schedule: Q01DX009 (ip), vehicle: other); 140 % of control (dose: 1.25 mg/kg/injection, schedule: Q01DX009 (ip), vehicle: other); 147 % of control (dose: 1.85 mg/kg/injection, schedule: Q01DX009 (ip), vehicle: carboxymethylcellulose (CMC)); 134 % of control [5 of 6 alive] (dose: 2.5 mg/kg/injection, schedule: Q01DX009 (ip), vehicle: carboxymethylcellulose (CMC)). Also, the T/C was 143 % of control (dose: 3.7 mg/kg/injection, schedule: Q01DX009 (ip), vehicle: carboxymethylcellulose (CMC)); 128 % of control (dose: 5.0 mg/kg/injection, schedule: Q01DX009 (ip), vehicle: carboxymethylcellulose (CMC)); 147 % of control (dose: 7.5 mg/kg/injection, schedule: Q01DX009 (ip), vehicle: carboxymethylcellulose (CMC)); 149 % of control (dose: 15.0 mg/kg/injection, schedule: Q01DX009 (ip), vehicle: carboxymethylcellulose (CMC)); 125 % of control (dose: 37.5 mg/kg/injection, schedule: Q01DX009 (oral), vehicle: carboxymethylcellulose (CMC)); 128 % of control (dose: 50.0 mg/kg/injection, schedule: Q01DX009 (ip), vehicle: other). For the same molecule, the T/C reads like this: (dose: 120.0 mg/kg/injection, schedule: Q01DX009 (ip), vehicle: carboxymethylcellulose (CMC)) 143 % of control; (dose: 150.0 mg/kg/injection, schedule: Q01DX009 (oral), vehicle: carboxymethylcellulose (CMC)) 132 % of control.
